Source: article PMC10878155
These are yes or no findings as the source states them, for the method shown. In cells and extracts the contact can be indirect. Some results given as binding are weak or reduced against the parent protein; the word gives no strength.

The chains behind the UniProt entries cited, without tags or fusion partners.
UniProt P17096: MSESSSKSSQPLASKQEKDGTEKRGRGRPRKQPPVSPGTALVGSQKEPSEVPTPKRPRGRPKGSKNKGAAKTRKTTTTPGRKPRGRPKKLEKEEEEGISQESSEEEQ

T1: STMN1 (UniProt P16949)
T1 sequence: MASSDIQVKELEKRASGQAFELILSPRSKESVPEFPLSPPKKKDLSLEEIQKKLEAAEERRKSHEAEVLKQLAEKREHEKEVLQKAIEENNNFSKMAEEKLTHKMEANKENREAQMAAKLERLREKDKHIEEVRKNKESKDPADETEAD


Legend:
STMN1 = molecular target: T1, STMN1; test: co-IP; antibody on magnetic beads incubated with lysate of STMN1-overexpressing NCI-H1299 cells overnight at 4 °C; STMN1 or HMGA1 precipitated, partner detected by western blotting
[1] = molecular target: high mobility group AT-hook 1 (human (endogenous in NCI-H1299)) (UniProt P17096); test: as above

| Molecule | binding (STMN1) | binding [1] |
| --- | --- | --- |
| high mobility group AT-hook 1 (from UniProt P17096 1-107) | binds |  |
| STMN1 (protein, UniProt P16949 1-149) MASSDIQVKELEKRASGQAFELILSPRSKESVPEFPLSPPKKKDLSLEEIQKKLEAAEERRKSHEAEVLKQLAEKREHEKEVLQKAIEENNNFSKMAEEKLTHKMEANKENREAQMAAKLERLREKDKHIEEVRKNKESKDPADETEAD |  | binds |
